Among the data in PMC11773481 are binding values, retold here.

The assay concerns the target FLAG-tagged isolated KEAP1 KELCH domain. As to the kind of experiment: co-IP; proteins transiently expressed in DPP8/9−/− HEK 293T cells; clarified lysates on anti-FLAG M2 agarose 1 h at 4 °C, PBS washes, 3X-FLAG peptide elution, immunoblot; VbP (10 μΜ) on cells or DTT (10 mM) on beads had no effect.

No constants are given. Whether binding was seen depends on the method and setting. In cells and extracts the contact can be indirect. Binding calls can cover weak binding; strength is not graded here.

B1: DPP8 V869C (enzyme, UniProt Q6V1X1 1-898)
chain: MWKRSEQMKIKSGKCNMAAAMETEQLGVEIFETADCEENIESQDRPKLEPFYVERYSWSQLKKLLADTRKYHGYMMAKAPHDFMFVKRNDPDGPHSDRIYYLAMSGENRENTLFYSEIPKTINRAAVLMLSWKPLLDLFQATLDYGMYSREEELLRERKRIGTVGIASYDYHQGSGTFLFQAGSGIYHVKDGGPQGFTQQPLRPNLVETSCPNIRMDPKLCPADPDWIAFIHSNDIWISNIVTREERRLTYVHNELANMEEDARSAGVATFVLQEEFDRYSGYWWCPKAETTPSGGKILRILYEENDESEVEIIHVTSPMLETRRADSFRYPKTGTANPKVTFKMSEIMIDAEGRIIDVIDKELIQPFEILFEGVEYIARAGWTPEGKYAWSILLDRSQTRLQIVLISPELFIPVEDDVMERQRLIESVPDSVTPLIIYEETTDIWINIHDIFHVFPQSHEEEIEFIFASECKTGFRHLYKITSILKESKYKRSSGGLPAPSDFKCPIKEEIAITSGEWEVLGRHGSNIQVDEVRRLVYFEGTKDSPLEHHLYVVSYVNPGEVTRLTDRGYSHSCCISQHCDFFISKYSNQKNPHCVSLYKLSSPEDDPTCKTKEFWATILDSAGPLPDYTPPEIFSFESTTGFTLYGMLYKPHDLQPGKKYPTVLFIYGGPQVQLVNNRFKGVKYFRLNTLASLGYVVVVIDNRGSCHRGLKFEGAFKYKMGQIEIDDQVEGLQYLASRYDFIDLDRVGIHGWSYGGYLSLMALMQRSDIFRVAIAGAPVTLWIFYDTGYTERYMGHPDQNEQGYYLGSVAMQAEKFPSEPNRLLLLHGFLDENVHFAHTSILLSFLVRAGKPYDLQIYPQERHSIRCPESGEHYELHLLHYLQENLGSRIAALKVI
In the case of B1, the binding result was “binds”.
